Counter-ions that a name gives are not always drawn. ± gives the standard deviation of the averaged measurements. This is one part of the list. The data scatter; read single values as rough.
These compounds were tested on hAMSC donor 1 (assay: transgenic luciferase activity (RLU/mg protein) fold change vs vehicle control (ratio); hAMSC are human adipose-derived mesenchymal stem cells given an EGFP-luciferase plasmid by lipofection; higher = more transgene expression). Conditions: priming compound concentration 1.7 µM.
`C[C@]12C/C(=C/O)C(=O)C[C@@H]1CC[C@@H]1[C@@H]2CC[C@@]2(C)[C@H]1CC[C@]2(C)O` [Oxymetholone] was tested, and the transgenic luciferase activity was 0.997 ± 0.55.
`FC(F)(F)c1cccc(N2CCNCC2)c1` [TFMPP hydrochloride] showed a transgenic luciferase activity of 1.01 ± 0.12.
Work on `CN(C)C(=O)Oc1ccc[n+](C)c1` [Pyridostigmine bromide] yielded a transgenic luciferase activity of 1.19 ± 0.53.
`CCOC(=O)c1cncn1[C@H](C)c1ccccc1` [Etomidate] showed a transgenic luciferase activity of 0.581 ± 0.21.
With `CCOC(=O)C1(c2ccccc2)CCN(CCC(C#N)(c2ccccc2)c2ccccc2)CC1` [Diphenoxylate hydrochloride] the transgenic luciferase activity was 1.07 ± 0.23.
Work on `CCCCC/C=C\C/C=C\C/C=C\C/C=C\CCCC(=O)Nc1ccc(O)cc1` yielded a transgenic luciferase activity of 1.78 ± 1.8.
Work on `CCCCCCCCCOc1ccc2[nH]cc(CCN)c2c1` [5-Nonyloxytryptamine hydrochloride] yielded a transgenic luciferase activity of 1.2 ± 0.28.
Compound `COc1ccc(CCN)cc1OC` [Homoveratrylamine] has a transgenic luciferase activity of 0.683 ± 0.29.
With `O=C(O)C(Cl)Cl` [Dichloroacetic acid] the transgenic luciferase activity was 0.527 ± 0.32.
Work on `C[C@]12CC[C@H](O)CC1=CC[C@@H]1[C@@H]2CC[C@@]2(C)[C@H]1CC[C@]2(C)O` [Methylandrostenediol] yielded a transgenic luciferase activity of 1.02 ± 0.39.
`C=C(C)CN1CC[C@@]23c4c5ccc(O)c4O[C@H]2c2[nH]c4ccccc4c2C[C@]3(O)C1C5` [SDM25N hydrochloride] gave a transgenic luciferase activity of 0.692 ± 0.2.
`c1ccc2c(c1)Nc1ccccc1S2` [Phenothiazine] showed a transgenic luciferase activity of 0.869 ± 0.42.
With `CN1CC[C@@H](c2ccc(F)cc2)[C@H](COc2ccc3c(c2)OCO3)C1` [N-Methylparoxetine] the transgenic luciferase activity was 0.184 ± 0.05.
For `CN1C(=O)CN=C(c2ccccc2)c2cc(Cl)ccc21` [Diazepam], the transgenic luciferase activity was 0.612 ± 0.027.

From the supplement of paper PMC7238544
